Values of other authors as cited in patent publication US9504699B2, “Delayed-release glucocorticoid treatment of rheumatoid disease” (Horizon Pharma AG, priority 2006, dated 2016).
Some entries share one result that the patent states for a list of compounds.

Conditions: in vivo; cited from earlier work

C[C@H]1C[C@@H]2[C@H]([C@@H](O)C[C@@]3(C)[C@H]2CC[C@]3(O)C(=O)CO)[C@@]2(C)C=CC(=O)C=C12 [methylprednisolone]
half-life: 3 to 4 h
